Some of the results follow.

Sequences of proteins named here, by UniProt entry; tags and fusion partners are left off.
UniProt Q0JBA9, entry or part of it: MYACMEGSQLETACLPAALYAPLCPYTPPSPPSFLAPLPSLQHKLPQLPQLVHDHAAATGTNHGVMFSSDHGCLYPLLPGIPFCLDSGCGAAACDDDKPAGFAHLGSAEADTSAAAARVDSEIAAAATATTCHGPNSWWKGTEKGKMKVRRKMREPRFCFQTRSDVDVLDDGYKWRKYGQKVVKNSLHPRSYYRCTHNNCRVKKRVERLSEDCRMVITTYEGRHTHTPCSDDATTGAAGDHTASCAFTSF

For this assay, the target named is OsWRKY34 (Oryza sativa, UniProt Q0JBA9 1-250). Put plainly: protein-binding microarray (RPBM); PBS, 2% BSA, 51.3 ng/ul salmon testes DNA, 50 uM zinc acetate, 200 nM TF, 25 C, 1 h; high values mean tight binding. The note with it: protein: recombinant; tags: N-terminal polyhistidine and DsRed monomer fusion (pET32a); label: CyDye5-dUTP incorporated in the synthesized complementary strand; 3' TTTTT single-stranded linker to array surface; dsDNA, one strand shown. The procedure, abridged: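 The binding signal is fluorescence intensity per array feature (arbitrary units). Readings came from an Axon 4000B scanner after a washed, 2% BSA-blocked, double-stranded custom Agilent array had been incubated for 1 h at 25 °C with 200 nM protein and 50 µM zinc acetate. The protein was a Ni–NTA-purified transcription factor fused N-terminally to polyhistidine and DsRed, expressed in E. coli BL21-CodonPlus.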
“TTGCCAACGTGGAGGGGAGGAGACAGCCGGGGTGGTGCATCGGAGTCACCTAGTGCAG”: the binding signal was 8270 fluorescence intensity (a.u.). Regarding “CCACCACCTCGCCATCGACCGTCCATCCAGGTCACCCCGACGGAGTCACCTAGTGCAG”, the binding signal was 8180 fluorescence intensity (a.u.). To “GGCTGGCTACCCACCCACCGAACGGCGTGCGCGCGGACAACGGAGTCACCTAGTGCAG” belongs 8340 fluorescence intensity (a.u.).

Turning to “TCCTTCTTTTACCGGCGTCACGTATAATTGCAGGTTGGCTCGGAGTCACCTAGTGCAG”, the binding signal is 8830 fluorescence intensity (a.u.). As to “CTTGTCAACCTAACCTGAACCCTTTTGCACACACACACACCGGAGTCACCTAGTGCAG”, the binding signal was 11200 fluorescence intensity (a.u.).

On to “ACACATGTCTTGCAGTACCCGTTTACTCTTTATTCCCATGCGGAGTCACCTAGTGCAG”, for which the binding signal is 12000 fluorescence intensity (a.u.). For the sequence “CATTCCTATCAAAATCCTACGTTTTTCCTATTCCTACGTTCGGAGTCACCTAGTGCAG”, the binding signal was 9840 fluorescence intensity (a.u.). As to “GGCCGCCTCCTCGCCGTCGTCTCCTCTCCTCTCACTTGTCCGGAGTCACCTAGTGCAG”, the binding signal was 9850 fluorescence intensity (a.u.). “CAACACATTCTCTGTCTCTCTCTCGCTTTCTAGTTCTTGGCGGAGTCACCTAGTGCAG”: the binding signal was 10300 fluorescence intensity (a.u.).

As to “TGTCTTTCCCACCATCTGTCGCGCCTCCAACGACTCTCGCCGGAGTCACCTAGTGCAG”, the binding signal is 8840 fluorescence intensity (a.u.). To “ACTTTGTCACTTGACTTATTCTCTGGCCGTGCGTATAAATCGGAGTCACCTAGTGCAG” belongs 8150 fluorescence intensity (a.u.). Regarding “GTTGTGTTCACCTCACCACTATCACTGAACATTCCTCTTACGGAGTCACCTAGTGCAG”, the binding signal was 10100 fluorescence intensity (a.u.). To “CGTCGTTGCTAAGAAATCGGCGCCGTGCTCCTCTTCTCTTCGGAGTCACCTAGTGCAG” belongs 8190 fluorescence intensity (a.u.). To “TCTCTCGCCGATTCCGCCACCGCCGCCGCGCCGCGCCTCGCGGAGTCACCTAGTGCAG” belongs 9420 fluorescence intensity (a.u.); to “GATGTTAAGTTTTGGGCATATGATTGAATTGTCTTATATACGGAGTCACCTAGTGCAG”, 8080 fluorescence intensity (a.u.). “CAAACGGTAGGGGTATGTAGGGGATCCAATCGAAAATTTACGGAGTCACCTAGTGCAG”: the binding signal is 8390 fluorescence intensity (a.u.). As for “ACCGGTTTGACCACGCCACTTCCTGCACCAGTCCACATACCGGAGTCACCTAGTGCAG”, the binding signal was 8250 fluorescence intensity (a.u.).

For “GTAGTTGTATCATTTTTGTTTTCTTGTGAGATGCCAATCACGGAGTCACCTAGTGCAG”, the binding signal is 8560 fluorescence intensity (a.u.). As to “TCTGGGATTTTTTTTCTGCATTTAGGGGTACTGTTTCCATCGGAGTCACCTAGTGCAG”, the binding signal was 11200 fluorescence intensity (a.u.). Take “CATCACATCATCATTCCATCCCATTCATCCCTATCCTTCACGGAGTCACCTAGTGCAG”: the binding signal is 9300 fluorescence intensity (a.u.). To “GCTCAGCTACTCATCACCACACACGCACAGTAGCTTAGCACGGAGTCACCTAGTGCAG” belongs 8760 fluorescence intensity (a.u.); to “CATTCTTGTCTGTAGCTTATTTGTTCGTGTTCATTAGTTTCGGAGTCACCTAGTGCAG”, 13500 fluorescence intensity (a.u.); to “GTTATGGGTTTGATTTTTTTTCGTTTAGAAAGTTATGGGTCGGAGTCACCTAGTGCAG”, 9220 fluorescence intensity (a.u.).

With “GGGCTGGGGAAAATGATCGACTACTTTTAACCATTTCAGTCGGAGTCACCTAGTGCAG”, the binding signal was 8200 fluorescence intensity (a.u.). To “GCAGTCCAAGTCCAAGTCCAAGTCCAAGCGCTAATAAATTCGGAGTCACCTAGTGCAG” belongs 8440 fluorescence intensity (a.u.). As to “TCTTTTTTTTTTTTTTTTGCTTCTGATCATGCAAAGCACCCGGAGTCACCTAGTGCAG”, the binding signal is 8150 fluorescence intensity (a.u.). For the sequence “CTACCATCCGTCGCGGCCGGCCCCATCCCTCATGTGCGACCGGAGTCACCTAGTGCAG”, the binding signal is 12400 fluorescence intensity (a.u.). As to “CGACTGTTGATTTCGTGAATCCTTTTAATGCAGCCTCGTACGGAGTCACCTAGTGCAG”, the binding signal was 10300 fluorescence intensity (a.u.). Consider “CCGCCTCGAGTCCGTCCGTCGCTTCCTCTCTCTCTACTTGCGGAGTCACCTAGTGCAG”, for which the binding signal was 8540 fluorescence intensity (a.u.). To “TAGGGTCATGAATTAGATTTGGGTCACTTTTAAGGAAGTCCGGAGTCACCTAGTGCAG” belongs 8060 fluorescence intensity (a.u.). To “GATTTTGAGTTTTTTTCTTGCAACATTTGACCACTCATCTCGGAGTCACCTAGTGCAG” belongs 12700 fluorescence intensity (a.u.).

“TGTTTTCCGCGCACACGCATTTATTCTCAAACTCCTAAATCGGAGTCACCTAGTGCAG”: the binding signal was 8370 fluorescence intensity (a.u.). With “GCCATGCCACACATCATGCCACACATTTGCCGTTTTCTTACGGAGTCACCTAGTGCAG”, the binding signal was 14200 fluorescence intensity (a.u.). To “TAATAGTTTTCTCATTTGCGTGCTCGTACTTAATCTTCATCGGAGTCACCTAGTGCAG” belongs 10100 fluorescence intensity (a.u.); to “TTTCCATTGTTCAGGTAGGGTGGGAATAGGATGTGCTAGACGGAGTCACCTAGTGCAG”, 10700 fluorescence intensity (a.u.). On to “TCATTGTCGTTGGACTACACTTATTTTCCCATTTCTATCTCGGAGTCACCTAGTGCAG”, for which the binding signal was 10900 fluorescence intensity (a.u.).

Regarding “TGTGGTTGTGGGAGGTGATTCAATCAGGGGCAAAAGGTGACGGAGTCACCTAGTGCAG”, the binding signal is 13000 fluorescence intensity (a.u.).

For the sequence “CCACCTCCAACAACAACGGCCTTGTCATTTCCTCTACCGCCGGAGTCACCTAGTGCAG”, the binding signal was 8570 fluorescence intensity (a.u.). With “TCCACCACCCGCCGCACCGCCGGAAATTCCAGGTCCACCGCGGAGTCACCTAGTGCAG”, the binding signal was 8340 fluorescence intensity (a.u.).

For the sequence “GGGGACATACTTCTCGCAAATGTCTGCGCTACAGTGCTACCGGAGTCACCTAGTGCAG”, the binding signal was 9150 fluorescence intensity (a.u.). Consider “AGTTTGTTTTTTTTCTGTCCTTGACATGGCCATTTTGTTACGGAGTCACCTAGTGCAG”, for which the binding signal was 9920 fluorescence intensity (a.u.). “TTTTAGCTGGCTAATAGCCTGCTATTGTACCGGCTCTTATCGGAGTCACCTAGTGCAG”: the binding signal is 8680 fluorescence intensity (a.u.).

Values taken from paper PMC7819943, “Rice protein-binding microarrays: a tool to detect cis-acting elements near promoter regions in rice”.
